Reference: PubChem BioAssay AID328 (DTP/NCI, 2004)
The list shows only some results of the screen, not a fair sample: it gathers tests that were run many times, whatever their T/C, doses with no T/C, and many T/C values between a quarter and a half above the control. Further doses and runs are listed elsewhere. T/C gives the treated animals as a percentage of the vehicle group. Some doses have a count of surviving animals in place of a T/C: the source files T/C as zero there, which appears to mark a toxic dose or a test without result, not a measured value. Some doses without a T/C left all or most animals alive at the check, yet need not have been tolerated: survival well below the control is almost never listed, so the zero probably covers shortened survival too. Counts of survivors are from the toxicity check (mostly the fifth day) where no day follows; animals may have died later. Schedule codes are those of the source, taken here to give the interval after Q, in days (D) or hours (H), and the number of doses after X. Where survival is the endpoint, the PubChem record calls one and a half times the control and up active, and a quarter to a half above the control has no call in these data; cut-offs in other NCI protocols can differ. Signs of the kind (2×) stand for listed records that agree. Some T/C values are followed by the survivors on the day toxicity was checked, most often the fifth; without a count, all were alive then. Some entries hold several experiments; their values stand side by side, smallest first.

Test system: BDF1 mice, P388 leukemia ip, median survival T/C
Assay: NCI In Vivo Anticancer Drug Screen. Data for tumor model P388 Leukemia (intraperitoneal) in B6D2F1 (BDF1) mice
Conditions: T/C endpoint: median survival time, higher T/C = longer survival
Procedure, shortened: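 In tumour-bearing mice, survival after compound treatment is set against the vehicle group and given as a quotient.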

[1] = dose: 200.0 mg/kg/injection, schedule: Q01DX009 (ip), vehicle: saline
[2] = dose: 25.0 mg/kg/injection, schedule: Q01DX009 (ip), vehicle: saline
[3] = dose: 50.0 mg/kg/injection, schedule: Q01DX009 (ip), vehicle: saline
[4] = dose: 100.0 mg/kg/injection, schedule: Q01DX009 (ip), vehicle: saline
[5] = dose: 400.0 mg/kg/injection, schedule: Q01DX009 (ip), vehicle: saline
[6] = dose: 12.5 mg/kg/injection, schedule: Q01DX009 (ip), vehicle: saline

## Nc1c(Br)cc2c(c1Br)Cc1cc(Br)ccc1-2
dose: 400.0 mg/kg/injection, schedule: Q01DX009 (ip), vehicle: saline with Tween-80
  survivor count: 6 of 6

## C[S+](C)Cc1ccc(C(=O)Oc2ccc([N+](=O)[O-])cc2)cc1
[1]
  survivor count: 5 of 6

## COCC1OC(OC2OCC3OC4(OCC(O)(C(C)OC)C5OCOC54)OC3C2OC)C(OC)C(O)C1OC1OC(C)C(OC)C(OC2OC(C)C3OC4(CC(O)C(OC5CC(OC6CC(C)([N+](=O)[O-])C(OC)C(C)O6)C(OC(=O)c6c(C)c(Cl)c(O)c(Cl)c6OC)C(C)O5)C(C)O4)OC3(C)C2O)C1O (centres undefined)
[2]
  T/C: 127 % of control
[3]
  T/C: 130 % of control (2×)
[4]
  T/C: 139 % of control
[1]
  survivor count: 2 of 6
[5]
  survivor count: 2 of 6

## COc1ccc(N2c3ccccc3-c3cc[nH]c(=O)c3[C@H]2O)cc1OC
dose: 37.5 mg/kg/injection, schedule: Q01DX006 (ip), vehicle: Klucel (hydroxypropylcellulose) (HPC)
  T/C: 127 % of control
dose: 150.0 mg/kg/injection, schedule: Q01DX006 (ip), vehicle: Klucel (hydroxypropylcellulose) (HPC)
  T/C: 135 % of control
dose: 300.0 mg/kg/injection, schedule: Q01DX006 (ip), vehicle: Klucel (hydroxypropylcellulose) (HPC)
  survivor count: 0 of 3

## O=NN(CCCl)C(=O)Nc1cc(Cl)ccc1O
dose: 33.0 mg/kg/injection, schedule: Q04DX003 (ip), vehicle: saline with Tween-80
  T/C: 139 % of control
dose: 50.0 mg/kg/injection, schedule: Q04DX003 (ip), vehicle: saline with Tween-80
  T/C: 139 % of control
dose: 75.0 mg/kg/injection, schedule: Q04DX003 (ip), vehicle: saline with Tween-80
  T/C: 139 % of control

## CC(=O)CC(C)=O.CC(=O)CC(C)=O.C[CH2][Sn][CH2]C
dose: 25.0 mg/kg/injection, schedule: Q01DX001 (ip), vehicle: Klucel (hydroxypropylcellulose) (HPC)
  T/C: 130 % of control
dose: 50.0 mg/kg/injection, schedule: Q01DX001 (ip), vehicle: Klucel (hydroxypropylcellulose) (HPC)
  survivor count: 0 of 6

## CC1(C)N=C(N)N=C(N)N1c1ccc(OCCCOc2ccc(S(=O)(=O)F)cc2)c(Cl)c1
dose: 1.5 mg/kg/injection, schedule: Q01DX009 (ip), vehicle: saline
  T/C: 136 % of control
dose: 2.3 mg/kg/injection, schedule: Q01DX009 (ip), vehicle: saline
  T/C: 136 % of control
dose: 3.6 mg/kg/injection, schedule: Q01DX009 (ip), vehicle: saline
  T/C: 135 % of control
dose: 5.4 mg/kg/injection, schedule: Q01DX009 (ip), vehicle: saline
  T/C: 140 % of control
dose: 6.25 mg/kg/injection, schedule: Q01DX009 (ip), vehicle: saline
  T/C: 131 % of control
dose: 8.25 mg/kg/injection, schedule: Q01DX009 (ip), vehicle: saline
  T/C: 133 % of control
[6]
  T/C: 125 and 136 % of control [5 of 6 alive]
[3]
  survivor count: 4 of 6
dose: 75.0 mg/kg/injection, schedule: Q04DX003 (ip), vehicle: saline
  survivor count: 3 of 6

## COC(=O)N(CCCl)N=O
dose: 20.0 mg/kg/injection, schedule: Q01DX001 (ip), vehicle: saline with Tween-80
  survivor count: 5 of 6

## C[C@@H]1C[C@H]2[C@@H]3CCC4=CC(=O)C=C[C@]4(C)[C@@]3(F)[C@@H](O)C[C@]2(C)[C@@]1(O)C(=O)CO
dose: 25.0 mg/kg/injection, schedule: Q04DX003 (ip), vehicle: saline
  T/C: 127 % of control
dose: 100.0 mg/kg/injection, schedule: Q04DX003 (ip), vehicle: saline
  survivor count: 5 of 6
dose: 125.0 mg/kg/injection, schedule: Q04DX003 (ip), vehicle: saline
  survivor count: 6 of 6
dose: 200.0 mg/kg/injection, schedule: Q04DX003 (ip), vehicle: saline
  survivor count: 3 of 6

## O=C(O)c1cc(N=Nc2ccccc2)ccc1O
dose: 200.0 mg/kg/injection, schedule: Q04DX003 (ip), vehicle: saline with Tween-80
  survivor count: 6 of 6

## N#CCCN1c2ccccc2Sc2ccccc21
dose: 25.0 mg/kg/injection, schedule: Q04DX003 (ip), vehicle: Klucel (hydroxypropylcellulose) (HPC)
  survivor count: 6 of 6
dose: 50.0 mg/kg/injection, schedule: Q04DX003 (ip), vehicle: Klucel (hydroxypropylcellulose) (HPC)
  survivor count: 6 of 6
dose: 100.0 mg/kg/injection, schedule: Q04DX003 (ip), vehicle: Klucel (hydroxypropylcellulose) (HPC)
  survivor count: 6 of 6
dose: 200.0 mg/kg/injection, schedule: Q04DX003 (ip), vehicle: Klucel (hydroxypropylcellulose) (HPC)
  survivor count: 6 of 6

## CC1(C(=O)N2CC2)OC1c1ccccc1 (centres undefined)
dose: 200.0 mg/kg/injection, schedule: Q04DX002 (ip), vehicle: saline with Tween-80
  survivor count: 6 of 6
dose: 400.0 mg/kg/injection, schedule: Q04DX002 (ip), vehicle: saline with Tween-80
  survivor count: 3 of 6

## COc1ccc(/C(=N/N)C(C)(C)C)cc1
dose: 100.0 mg/kg/injection, schedule: Q01DX009 (ip), vehicle: saline with Tween-80
  survivor count: 5 of 6
dose: 200.0 mg/kg/injection, schedule: Q01DX009 (ip), vehicle: saline with Tween-80
  survivor count: 0 of 6

## COC(=O)C(Sc1ccc(Cl)cc1)C1SC(=S)N(C)C1=O (centres undefined)
dose: 50.0 mg/kg/injection, schedule: Q01DX009 (ip), vehicle: saline with Tween-80
  T/C: 129 % of control

## COc1ccc2[nH]c(=O)c(C)c(C)c2c1
[6]
  survivor count: 6 of 6
[2]
  survivor count: 6 of 6
[4]
  survivor count: 6 of 6
[1]
  survivor count: 6 of 6
[5]
  survivor count: 6 of 6
